In PubChem BioAssay AID624297 (National Center for Advancing Translational Sciences (NCATS), 2012):
Out of some 340,000 compounds screened, about 6,200 (1.8%) were called active. This list was built around the results that the source calls inconclusive (neither active nor inactive); the mix of calls is not that of the screen. Calls come from the whole dose curve; as a rule, active = well fitted activation curve with a large enough effect; inconclusive = small, poorly fitted or top-dose-only effect; inactive = no such curve, though single readings can be large or run the other way. Where the call is inconclusive, the potency comes from a doubtful curve fit.

Experiment: A quantitative high throughput screen for small molecules that induce DNA re-replication in SW480 colon adenocarcinoma cells. For re-replication activation: % of control where 0% means no effect. Note: nearly all actives have a fitted effect of over 55% in size.
Settings: Hoechst DNA content imaging, 48 h; re-replication activation: at 46.1 µM (top of the series) unless noted
Outline: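 Image-based DNA-content assay: after two days of treatment, nuclei were labelled with the DNA dye Hoechst and imaged, and hits were compounds raising the count of nuclei showing high fluorescence intensity.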
Potency is the fitted concentration of half-maximal effect.

Compound | Potency | re-replication activation
COc1cccc(-c2nc(CS(=O)(=O)CC(=O)NCCN3CCOCC3)c(C)o2)c1 | inconclusive: 1.26 µM [activator, full curve, poor fit] | 
Cc1ccc(NS(=O)(=O)c2ccc(-n3cccn3)cc2)c(C)c1 | inconclusive: 1.84 µM [activator, partial curve, poor fit] | 
O=C(CCN1C(=O)c2cccc3cccc(c23)C1=O)Nc1ccon1 | inconclusive: 6.51 µM [activator, partial curve, poor fit] | 
O=C(CCc1nc2ccccc2c(=O)[nH]1)Nc1cc(C(F)(F)F)ccc1N1CCOCC1 | inconclusive: 25.9 µM [activator, single point] | 
O=C(c1cccc(C(F)(F)F)c1)N1CCN(CCc2ccccc2)CC1 | inconclusive: 29.1 µM [activator, single point] | 
CC(=O)Nc1ccc(C2NC(=S)N(c3ccccc3C(F)(F)F)C(C)=C2C(=O)N2CCOCC2)cc1 (stereo unspecified) | inconclusive: 0.231 µM [activator, single point] | 
COC(=O)c1ccc(NCc2cc(O)ccc2O)cc1O | inconclusive: 25.9 µM [activator, single point] | 
Clc1ccc(C2=NNC(=NCc3ccc4c(c3)OCO4)SC2)cc1 | inconclusive: 29.1 µM [activator, single point] | 
Cc1ccc(-c2cc(-c3ccco3)c3c(N)c(C(=O)NN)oc3n2)cc1 | active: 20.6 µM | 
Cn1c(C(=O)N2CCc3ccccc3C2)cc2c(=O)n3ccccc3nc21 | inconclusive: 16.4 µM [activator, single point] | 
CCc1c(Cl)nc(N)nc1Nc1ccccc1Cl | inconclusive: 32.6 µM [activator, partial curve, poor fit] | 
CCN(CC)S(=O)(=O)c1ccc(-c2nnc(SCC(N)=O)n2CC)cc1 | inconclusive: 29.1 µM [activator, single point] | 
CCOc1ccc2ccccc2c1/C=N/NC(=O)CNC(=O)C(c1ccccc1)c1ccccc1 | inactive | 
CC1CC(C)CN(CCCNC(=O)c2ccc(CS(=O)(=O)Cc3ccccc3F)o2)C1 (stereo unspecified) | inactive | 
CC1(C)C2CCC1(C)C(SC(=N)N)C2 (stereo unspecified) | inconclusive: 16.4 µM [activator, single point] | 
O=C(c1nnsc1S(=O)(=O)c1ccc(Cl)cc1)N1CCOCC1 | inconclusive: 3.26 µM [activator, full curve, poor fit] | 
COc1ccc2c(c1)c(C(=O)OCCN(C)C)c(C)n2C | inactive | 
COc1ccccc1OC(C)C(=O)Nc1ccc2c(c1)n(C)c(=O)n2C (stereo unspecified) | inconclusive: 29.1 µM [activator, single point] | 
O=C(CNC(=O)c1ccccc1Cl)NCCc1cccs1 | inconclusive: 9.2 µM [activator, partial curve, poor fit] | 
Cc1cccc(C)c1OCC(=O)NNC(=O)c1ccoc1C | inconclusive: 0.517 µM [activator, full curve] | 
CCCc1cc(=O)[nH]c(SCC(=O)N(CC)c2c(N)n(Cc3ccccc3)c(=O)[nH]c2=O)n1 | inactive | 
CCOc1ccc(NC(=O)CCCNC(=O)Cn2cnc3sc(C)c(C)c3c2=O)cc1 | inconclusive: 20.6 µM [activator, single point] | 

Compound | Potency | re-replication activation
Cc1cccc2sc(NC(=O)CSCc3ccccc3)nc12 | inconclusive: 2.06 µM [activator, full curve, poor fit] | 
COc1ccc(CCn2c(=N)c(C(=O)NC3CCCC3)cc3c(=O)n4ccccc4nc32)cc1OC | inconclusive: 29.1 µM [activator, single point] | 
CNC(=O)c1ccsc1NC(=O)c1ccc(S(=O)(=O)N2CCc3ccccc32)cc1 | inconclusive: 29.1 µM [activator, partial curve, poor fit] | 
CCOC(=O)C1CCCN(C(=O)c2ccccc2SCCOC)C1 (stereo unspecified) | inconclusive: 18.4 µM [activator, single point] | 
Cc1noc(C)c1COC(=O)c1ccc(F)c(S(=O)(=O)N2CCCCC2)c1 | inactive | 
CNC[C@@H](CC1CCCCC1)NC[C@H](CC(C)C)NCCc1cccc(C(F)(F)F)c1 | inconclusive: 3.66 µM [activator, single point] | 
Fc1cccc(Cl)c1CSc1ccc(-c2cccnc2)nn1 | inactive | 
Clc1nc(Cl)nc(-c2cn(-c3ccccc3)c3ccccc23)n1 | inactive | 
O=C(c1cc(C2CC2)on1)N1CCCC(N2CCN(c3cccc(C(F)(F)F)c3)CC2)C1 (stereo unspecified) | inconclusive: 7.31 µM [activator, partial curve] | 
Cc1ccc(SC[C@H](Cc2ccccc2)N2CCN(CC(C)C)CCC2=O)cc1 | inactive | 
CS(=O)(=O)c1ccccc1C(=O)N1CCN(S(=O)(=O)c2ccc(C3CCCCC3)cc2)CC1 | inconclusive: 20.6 µM [activator, single point] | 
COc1cc(NC(=O)C2=C(C)OCCS2)c(Cl)cc1C(=O)NCCN(C)C | inconclusive: 29.1 µM [activator, partial curve, poor fit] | 
CN1CCCN(S(=O)(=O)c2ccccc2)c2nc3ccccc3nc21 | inactive | 
COc1ccc(NC(=O)CSc2ccc3nnc(CCNC(=O)c4ccccc4)n3n2)cc1OC | inactive | 
CCNC(=O)CCC(=O)Nc1cc(Cl)ccc1C |  | inactive: -4.94% [at 9.22 µM]
CCCN(CCC)CCCNc1ccc(C(=O)Nc2cccc(OC)c2)cc1[N+](=O)[O-] | inconclusive: 18.4 µM [activator, partial curve, poor fit] | 
CC(C)C(=O)c1cn(CC(=O)NCc2ccco2)c2ccccc12 | inconclusive: 29.1 µM [activator, single point] | 
COC(=O)c1ccccc1NC(=S)NC(=O)c1cccc2ccccc12 | inactive | 
CC(=O)N1C(O)CC(C)N1c1ccccc1 (stereo unspecified) | inconclusive: 29.1 µM [activator, single point] | 
CN(CCC1CCOCC1)Cc1cn[nH]c1-c1ccc(-c2ccccc2)cc1 | inconclusive: 29.1 µM [activator, partial curve, poor fit] | 
COc1ccc(CN(C)C(=O)C(Cc2ccccc2)NC(=O)c2ccccc2)c(OC)c1 (stereo unspecified) | inconclusive: 29.1 µM [activator, single point] | 
N#C/C(=C/c1ccc(O)c(O)c1)C(=O)NCc1ccc(Cl)cc1 | inconclusive: 20.6 µM [activator, single point] | 

By substructure, those above with an NH in an aromatic ring
Compound | Potency | re-replication activation
O=C(CCc1nc2ccccc2c(=O)[nH]1)Nc1cc(C(F)(F)F)ccc1N1CCOCC1 | inconclusive: 25.9 µM [activator, single point] | 
CCCc1cc(=O)[nH]c(SCC(=O)N(CC)c2c(N)n(Cc3ccccc3)c(=O)[nH]c2=O)n1 | inactive | 
CN(CCC1CCOCC1)Cc1cn[nH]c1-c1ccc(-c2ccccc2)cc1 | inconclusive: 29.1 µM [activator, partial curve, poor fit] | 

(more compounds)

Compound | Potency | re-replication activation
Cc1ccc(C)c(N2N=C(C(=O)Nc3ccccc3N3CCCC3)CCC2=O)c1 | inconclusive: 0.259 µM [activator, full curve, poor fit] | 
Nc1ccc(Cn2ccc3c4c(N)nc(N)nc4ccc32)cc1 | inconclusive: 23.1 µM [activator, partial curve, poor fit] | 
O=c1cc(Nc2ccc3c(c2)OCCO3)[nH]c(=O)n1C1CCCCC1 | active: 11.6 µM | 
OCCNc1nc(N2CCCCC2)nc2ccccc12 | inactive | 
CN(C)c1ccc(/C=C/C(=O)c2cccc(Br)c2)cc1 | inconclusive: 20.6 µM [activator, single point] | 
CN1CCN(S(=O)(=O)c2cccc(C(=O)N(Cc3nnc(-c4ccc(Cl)cc4)o3)C3CC3)c2)CC1 | active: 6.51 µM | 
CC(C)N1C(=O)C(O)(C2COC(C)(C)CC2=O)c2ccccc21 (stereo unspecified) | inconclusive: 29.1 µM [activator, single point] | 
COc1cccc(C(=O)c2sc(NC(C)C)nc2N)c1 | inconclusive: 16.4 µM [activator, single point] | 
COc1ccc(-n2c(C)cc(/C=N/Nc3nnc(C)n3N)c2C)cc1 | inconclusive: 14.1 µM [activator, partial curve, poor fit] | 
COC(=O)c1ccc(COc2ccccc2/C=N/NS(=O)(=O)c2ccccc2)cc1 | inconclusive: 35.5 µM [activator, single point] | 
CC/C(=N\NC(=O)c1ccc(N(C)C)cc1)c1ccccc1 | inconclusive: 1.03 µM [activator, partial curve, poor fit] | 
O=C(Nc1ccc(Br)cn1)c1ccc2ccccc2c1 | inconclusive: 29.1 µM [activator, single point] | 
Cc1cc(-n2c(C)c3c(C)nnc(C)c3c2C)ccc1N | inconclusive: 2.31 µM [activator, partial curve, poor fit] | 
OCCN1CCN(c2nc(-c3ccccc3)nc3c2oc2ccccc23)CC1 | inconclusive: 29.1 µM [activator, single point] | 
O=C(NNC(=O)c1ccccc1Cl)c1ccncc1 | inconclusive: 4.61 µM [activator, full curve, poor fit] | 
COc1ccc(-c2nnc3n2N=C(C)CS3)cc1 | inactive | 
O=C(COC(=O)c1ccc(F)cc1F)Nc1ccc2[nH]c(=O)[nH]c2c1 | inconclusive: 29.1 µM [activator, single point] | 
O=C(OCc1c(-c2ccccc2)ncc2ccccc12)c1ccccc1C(F)(F)F | inconclusive: 0.517 µM [activator, partial curve, poor fit] | 
O=C(CC(Nc1cccc(Cl)c1Cl)C(=O)OCC(=O)c1cccs1)c1ccccc1 (stereo unspecified) | inconclusive: 0.411 µM [activator, full curve, poor fit] | 
CCN(CC)C(=O)c1sc2nc(N3CCOCC3)c3c(c2c1N)CCCC3 | inactive | 
CCc1ccccc1NC(=O)CSC1=C(C#N)C(c2ccc3c(c2)OCO3)C2=C(CCCC2=O)N1 (stereo unspecified) | inconclusive: 32.6 µM [activator, partial curve, poor fit] | 
c1ccc(Cn2nc(-c3ccccc3)nc2-c2ccccc2)cc1 | inactive | 
